Experimental data as given in the supplement of paper PMC7024190.
This is one part of the list. Repeats in this data set agree poorly, so a single value says little.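 Human embryonic kidney cells were transiently transfected with a plasmid bearing a Renilla luciferase gene under the HSV-TK promoter. This first-round screen tests roughly ten thousand compounds for ones that increase reporter output.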

tested on: HEK 293FT; assay: log relative Renilla luciferase luminescence (reporter expression vs reference, reference not stated) (log (base not stated)); higher = higher recombinant reporter expression; settings: 10 µM; time after transfection 48 h
Procedure: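 HEK 293FT cells transiently transfected with pRL-TK (Renilla luciferase) were treated with compounds at 10 uM and luminescence was read about 42 h later. Values are log relative Renilla luminescence (log base and reference not stated). Single-pass screen; 2080 natural products library.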

SMILES | log
COc1c2occc2c(OC)c2c(=O)cc(C)oc12 [Khellin] | 0.00611
COc1ccc2ccc(=O)oc2c1C[C@@H]1OC1(C)C [Meranzin] | 0.219
C[C@H]1O[C@@H](Oc2c(-c3cc(O)c(O)c(O)c3)oc3cc(O)cc(O)c3c2=O)[C@@H](O)[C@@H](O)[C@@H]1O [Myricitrin] | -0.51
OCc1ccccc1O[C@@H]1O[C@H](CO)[C@@H](O)[C@H](O)[C@H]1O [Salicin] | 0.0875
COc1c(O)ccc(O)c1-c1cc(=O)c2c(O)cc(O)c(OC)c2o1 [Viscidulin III] | -0.0512
C=C1C(=O)[C@]23C[C@H]1CC[C@H]2[C@@]12CO[C@]3(O)[C@@H](O)[C@@H]1C(C)(C)C=CC2=O [Eriocalyxin B] | -1.68
CO[C@H]1CC[C@@]2(C)C(=CC[C@H]3[C@@H]4CC[C@H]([C@H](C)N(C)C)[C@@]4(C)CC[C@@H]32)C1 [Pachyaximine A] | -0.298
CC1=CC[C@]2(C)CC[C@]3(C)[C@H](CC[C@@H]4[C@@]5(C)CC[C@H](O)C(C)(C)[C@@H]5CC[C@]43C)[C@H]2[C@@H]1C [Pseudotaraxasterol] | 0.161
COc1cc2c(cc1OC)[C@@H]1Cc3ccc(OC)c(OC)c3CN1CC2 [Tetrahydropalmatine] | -0.288
CC(=O)O[C@@H]1CC[C@]2(C)[C@H]3CC[C@@H]4[C@@H]([C@]5(C)CC[C@@H](C(C)(C)O)O5)CC[C@@]4(C)[C@]3(C)CC[C@H]2C1(C)C [Cabraleadiol 3-acetate] | 0.0826
CC(=O)CC1CCCCN1C (centres undefined) [Methylisopelletierine] | 0.0838
C[C@@H]1CC[C@@]2(C)C(C(=O)O)=CCC[C@@H]2[C@@]1(C)CCC1=CCNC1=O [Echinophyllin C] | -0.191
CC(=O)Oc1cc(O)c2c(c1)OC(c1c(OC(C)=O)cccc1OC(C)=O)CC2=O (centres undefined) [2',6',7-Triacetoxy-5-hydroxyflavanone] | 0.12
C=C(C(=O)O)[C@H]1C=C2[C@@H](C)[C@@H](O)[C@H](O)C[C@]2(C)CC1 [2,3-Dihydroxypterodontic acid] | 0.212
COc1ccc([C@@H]2CC(=O)c3c(O)cc(OC)cc3O2)cc1 [4',7-Di-O-methylnaringenin] | 0.0106
C=C1CC[C@H]2C(C)(C)CCC[C@]2(C)[C@H]1/C=C/C1=CCOC1=O [Villosin] | 0.163
C=C(C)[C@@H]1CC[C@]2(C)[C@H](CC[C@@H]3[C@@H]([C@]4(C)CCC(O)(C(C)(C)O)O4)CC[C@]32C)[C@@]1(C)CCC(=O)O (some centres undefined) [Aglinin A] | 0.156
C=C1C(=O)O[C@H]2[C@H]1[C@H](OC(C)=O)C[C@@]1(C)O[C@@H]1CC[C@@]1(C)O[C@H]21 [Epitulipinolide diepoxide] | -0.422
COC(/C=C/c1ccccc1)=C1C(=O)C(OC)=C(OC)C1=O [Methyllinderone] | -0.181
CC(=O)OC[C@H](O)[C@]1(C)C=C2CC[C@@H]3C(C)(C)[C@H](O)CC[C@@]3(C)[C@@H]2CC1 [16-O-Acetyldarutigenol] | 0.0106
C=Cc1ncc(OC)c2c1[nH]c1c(OC)cccc12 [Dehydrocrenatidine] | 0.046
COc1cc(O)c(C(=O)/C=C/c2ccccc2)c(O)c1OC [Pashanone] | -0.0362
COc1cc2ccc(=O)oc2cc1OC [Scoparone] | 0.0352
Cc1cc(O)c2c(c1)C(=O)c1cccc(O)c1C2=O [Chrysophanol] | 0.0737
CC(=O)O[C@H]1C[C@@H]2CC(=O)OC[C@@H]2[C@H]1C [Isoboonein acetate] | -0.172
C=C1CC[C@@H]2[C@](C)(CCC[C@]2(C)C(=O)O)[C@H]1CC/C(C)=C/CO [Isocupressic acid] | 0.102
COc1cc2c(cc1C(C)=O)C=CC(C)(C)O2 [Encecalin] | -0.0384
C=CC(C)(C)c1c(O)cc(O)c2c(=O)c3c4c(c(O)cc3oc12)OC(C)(C)C=C4 [Cudraxanthone B] | -0.0544
CC[C@H](CC[C@@H](C)[C@H]1CC[C@H]2C3=C(CC[C@]12C)[C@@]1(C)CCC(O)CC1=CC3)C(C)C (some centres undefined) [Stigmasta-5,8-dien-3-ol] | -0.331

Quoted at random: 2 entries already listed.
SMILES | log
COc1cc2c(cc1OC)[C@@H]1Cc3ccc(OC)c(OC)c3CN1CC2 [Tetrahydropalmatine] | -0.288
COc1ccc2ccc(=O)oc2c1C[C@@H]1OC1(C)C [Meranzin] | 0.219
